Results reported in PubChem BioAssay AID1347076 (National Center for Advancing Translational Sciences (NCATS), 2019).
Hit rate of the full screen: of about 400,000 compounds, about 13,000 (3.2%) were called active. Inconclusive results, whose numbers are uncertain, are shown with a selection of clear calls. Calls come from the whole dose curve; as a rule, active = well fitted cell-killing curve with a large enough effect; inconclusive = small, poorly fitted or top-dose-only effect, or effect the other way; inactive = flat fitted curve, though single readings scatter. Where the call is inconclusive, the potency comes from a doubtful curve fit.

Experiment: qHTS assay for MDR1-selective chemotherapeutics: Primary screen using the drug-selected MDR subline cells KB-V1; note: nearly all actives have a fitted effect of over 60% in size
Conditions: KB-V1 MDR cells viability, CellTiter-Glo, 72 h; activity change, negative = cytotoxicity: at 46.1 µM (top of the series)
Outline: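 Compound-treated KB-V1 multidrug-resistant cells, 72 h, 37 degrees C; viability by CellTiter-Glo. Fitted qHTS curves give the values.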
% is set by controls: 0 for no effect and ±100 for the full control effect; potency is the fitted concentration of half-maximal effect.

Question: For `Cc1ccccc1OCC(=O)OCC(=O)N1CCCc2ccccc21`, which Potency is on record?
Answer: inconclusive: 29.1 µM [rising, single point]

Question: Which Potency does the source give for `COc1ccc(C(CNC(=O)c2oc3c(Cl)cccc3c2C)N2CCCC2)cc1` (stereo not given) here?
Answer: inactive

Question: With `COc1ccc(CCNC(=O)/C(C#N)=C/c2cccc(OCc3ccccc3)c2)cc1OC` as the compound, how does the Potency read?
Answer: inconclusive: 6.51 µM [cytotoxic, partial curve]

Question: With `CN(CC(=O)Nc1cccc(F)c1)S(=O)(=O)c1ccc2c(c1)n(C)c(=O)c(=O)n2C` as the compound, how does the Potency read?
Answer: inconclusive: 18.4 µM [rising, partial curve, poor fit]

Question: For `CC1c2ccccc2N(S(=O)(=O)c2ccccc2)C1C` (stereo not given), which Potency is on record?
Answer: inactive

Question: Which Potency does the source give for `C=C(C)C1CC=C(C)/C(=N\NC(=O)CCC(=O)Nc2ccc(C)c(C)c2)C1` (stereo not given) here?
Answer: inconclusive: 18.4 µM [cytotoxic, partial curve, poor fit]

Question: For `CC(C)OCCCNC(=O)c1cccc(NC(=O)c2ccccc2)c1`, which Potency is on record?
Answer: active: 16.4 µM

Question: Which Potency does the source give for `CCn1nc(C)c(CNC(=O)c2cc(COc3cncc(Cl)c3)on2)c1C` here?
Answer: inconclusive: 3.66 µM [cytotoxic, partial curve, poor fit]

Question: For `COCCCn1c(C(=O)NCCN2CCOCC2)cc2c(=O)n3cccc(C)c3nc21`, which Potency is on record?
Answer: inconclusive: 23.1 µM [cytotoxic, single point]

Question: With `COc1ccc(OC)c(C2C(C(=O)Nc3ccc(C)cc3)=C(C)Nc3nnnn32)c1` (stereo not given) as the compound, how does the Potency read?
Answer: inactive

Question: For `Cn1c(=O)c2c(nc(N3CCN(c4ccc([N+](=O)[O-])cc4)CC3)n2C)n(C)c1=O`, which Potency is on record?
Answer: inconclusive: 8.2 µM [cytotoxic, partial curve]

Question: For `COc1cc(C(=O)N/N=C/c2ccc(OC(=O)N3CCOCC3)cc2)cc(OC)c1OC`, which Potency is on record?
Answer: inconclusive: 29.1 µM [cytotoxic, single point]

Question: With `O=C(CC(c1cccs1)N1Cc2ccccc2C1=O)Nc1ccc(F)cc1` (stereo not given) as the compound, how does the Potency read?
Answer: inactive

Question: Which Potency does the source give for `CC(=O)c1cccc(NC(=O)CSc2ncc3c(n2)-c2cc(Cl)ccc2N(Cc2ccccc2)S3(=O)=O)c1` here?
Answer: inactive

Question: With `CCOC(=O)[C@H]1[C@H]2COc3ccc(Cl)cc3[C@@H]2N2C(=O)CN(Cc3ccc(Cl)cc3)C(=O)[C@@]12C` as the compound, how does the Potency read?
Answer: inconclusive: 29.1 µM [cytotoxic, partial curve, poor fit]

Question: For `CC(=O)c1ccc(-c2ccc(C(=O)Nc3nc(-c4ccccn4)cs3)o2)cc1`, which Potency is on record?
Answer: inconclusive: 2.06 µM [cytotoxic, partial curve, poor fit]

Question: Which Potency does the source give for `CCOC(=O)C1=C(COC(=O)C2CC(=O)N(c3ccccc3CC)C2)NC(=O)NC1C` (stereo not given) here?
Answer: inconclusive: 23.1 µM [rising, single point]

Question: For `COc1ccc(CCN2CC(C(=O)O)CC2=O)cc1OC` (stereo not given), which Potency is on record?
Answer: inconclusive: 20.6 µM [rising, single point]

Question: With `COc1ccc(CN(C)C(=O)Cc2c[nH]c3ccccc23)cc1` as the compound, how does the Potency read?
Answer: inactive

Question: Which Potency does the source give for `COc1cc(C(=O)NNC(=S)NC(=O)c2ccc(Cl)cc2)cc(OC)c1OC` here?
Answer: inconclusive: 0.58 µM [cytotoxic, full curve, poor fit]

Question: For `O=C(CCN1C(=O)/C(=C/c2ccccc2F)SC1=S)N[C@@H](CO)Cc1ccccc1`, which Potency is on record?
Answer: inactive

Question: For `O=C(CN(C(=O)CSc1nnc(COc2ccccc2)o1)c1ccc(F)cc1)NC1CCCC1`, which Potency is on record?
Answer: inactive

Question: For `COc1ccc(C(=O)NNC(=O)c2cccc(S(=O)(=O)N3CCOCC3)c2)cc1`, which Potency is on record?
Answer: inconclusive: 20.6 µM [rising, partial curve, poor fit]

Question: For `COc1ccc(-c2n[nH]c3c2CN(C(=O)c2ccc(OC)c(OC)c2)CC3)cc1`, which Potency is on record?
Answer: inconclusive: 23.1 µM [cytotoxic, single point]

Question: Which Potency does the source give for `COc1ccc2nc(C)cc(NCc3cccc(C(F)(F)F)c3)c2c1` here?
Answer: inconclusive: 23.1 µM [cytotoxic, single point]

Question: Which Potency does the source give for `O=C(c1cc2c(Cl)nc3ccccc3c2s1)N1CCCCC1` here?
Answer: inactive

Question: For `O=C(CN(C(=O)C1COc2ccccc2O1)c1ccccc1)NCC1CCCO1` (stereo not given), which Potency is on record?
Answer: inconclusive: 18.4 µM [cytotoxic, single point]

Question: Which Potency does the source give for `Cc1ccccc1S(=O)c1ccccc1C(=O)O` (stereo not given) here?
Answer: inactive

Question: For `Cc1cccc(N=N/C(=C\O)C(=O)c2ccc(Br)cc2)c1`, which Potency is on record?
Answer: inconclusive: 29.1 µM [cytotoxic, single point]

Question: With `O=C(NCCN1CCC(n2c(=O)[nH]c3ccccc32)CC1)c1ccc(Cl)c(Cl)c1` as the compound, how does the Potency read?
Answer: active: 20.6 µM

Question: For `Cc1cccc(-c2n[nH]c(=S)n2/N=C/c2ccc(C)o2)c1`, which Potency is on record?
Answer: inconclusive: 14.6 µM [cytotoxic, partial curve]

Question: With `COc1ccccc1NS(=O)(=O)c1cccc(NS(=O)(=O)c2ccc(Cl)c(C(=O)O)c2)c1` as the compound, how does the Potency read?
Answer: inactive

Question: With `COc1ccc(C(CNc2ccc(S(=O)(=O)N3CCCC3)cc2[N+](=O)[O-])N2CCCC2)cc1` (stereo not given) as the compound, how does the Potency read?
Answer: inconclusive: 2.06 µM [cytotoxic, full curve, poor fit]

Question: Which Potency does the source give for `O=C(/C=C/c1cn(-c2ccccc2)nc1-c1cccnc1)N1CCCCC1` here?
Answer: inconclusive: 18.4 µM [cytotoxic, single point]

Question: Which Potency does the source give for `CC(=O)c1ccc2c(c1)CC1(C2)Cc2cc3c(cc2C1)C(=O)CC3` (stereo not given) here?
Answer: active: 2.59 µM

Question: Which Potency does the source give for `COc1cccc(N2CCN(C(=O)c3ccc(CS(=O)Cc4ccc(C)cc4)o3)CC2)c1` (stereo not given) here?
Answer: inconclusive: 18.4 µM [cytotoxic, partial curve, poor fit]

Question: Which Potency does the source give for `O=C(CSc1nnc(-c2ccc3c(c2)OCO3)n1-c1ccccc1)c1ccccc1` here?
Answer: active: 8.2 µM

Question: Which Potency does the source give for `O=C(CCc1ccc(S(=O)(=O)N2CCOCC2)cc1)Nc1ccc2ccccc2c1` here?
Answer: active: 16.4 µM

Question: For `CC(C)CCNC(=O)C(=O)Nc1cc2c3c(c1)CCC(=O)N3CCC2`, which Potency is on record?
Answer: inactive

Question: With `O=S(=O)(c1ccc(Br)cc1F)N1CC[C@H](O)C1` as the compound, how does the Potency read?
Answer: inactive

Question: Which Potency does the source give for `Cc1cccc(N2CCN(C(=O)Cc3ccccc3[N+](=O)[O-])CC2)c1C` here?
Answer: inconclusive: 5.17 µM [cytotoxic, full curve]

Question: For `O=C(Nc1cccc([N+](=O)[O-])c1)c1[nH]ncc1Cl`, which Potency is on record?
Answer: active: 23.1 µM

Question: Which Potency does the source give for `CC(=O)Oc1ccc(Cn2c(C)c(C(=O)NCc3ccccc3C(F)(F)F)sc2=O)cc1` here?
Answer: inconclusive: 23.1 µM [cytotoxic, single point]

Question: Which Potency does the source give for `Cc1cc(C)c2nc3sc(C(=O)N4CCOCC4)c(N)c3cc2c1` here?
Answer: inconclusive: 0.291 µM [cytotoxic, full curve, poor fit]

Question: With `OC[C@@H]1[C@@H](c2ccc(F)cc2)C(c2cccc(Cl)c2)=NN1c1ccccc1` as the compound, how does the Potency read?
Answer: inconclusive: 20.6 µM [cytotoxic, single point]

Question: With `CCc1ccc(-c2cc(C(=O)N/N=C/c3c[nH]c4ccccc34)[nH]n2)cc1` as the compound, how does the Potency read?
Answer: inconclusive: 20.6 µM [cytotoxic, partial curve, poor fit]

Question: Which Potency does the source give for `Cc1ccnc(NC(=O)C2CCN(S(=O)(=O)c3ccc(C)c(C)c3)CC2)c1` here?
Answer: inconclusive: 7.31 µM [cytotoxic, partial curve, poor fit]

Question: With `CCOC(=O)CC1=NC(=O)CS1` as the compound, how does the Potency read?
Answer: inconclusive: 29.1 µM [rising, single point]

Question: With `CCOC(=O)c1ccccc1NC(=O)C1CC(=O)N(C(C)(C)C)C1` (stereo not given) as the compound, how does the Potency read?
Answer: inactive

Question: For `COc1ccc(OC)c(NC(=O)CSc2nc3ccccc3cc2Cc2ccccc2)c1`, which Potency is on record?
Answer: inactive

Question: Which Potency does the source give for `CNC(=S)N1CCN(c2nc3ccccc3s2)CC1` here?
Answer: inconclusive: 23.1 µM [cytotoxic, single point]

Question: Which Potency does the source give for `CCCCNC(=O)NCC(=O)Nc1ccc(F)c(F)c1` here?
Answer: inconclusive: 29.1 µM [rising, single point]

Question: With `COc1ccc(NC(=O)Nc2nnc(N3CCCC3)s2)cc1` as the compound, how does the Potency read?
Answer: inconclusive: 3.26 µM [rising, partial curve, poor fit]

Question: For `CC(C)C(C(=O)Nc1ccncc1)c1ccc(Cl)cc1` (stereo not given), which Potency is on record?
Answer: inactive

Question: With `S=C(NCc1ccco1)NC1CCCc2ccccc21` (stereo not given) as the compound, how does the Potency read?
Answer: inconclusive: 29.1 µM [cytotoxic, single point]

Question: With `COc1ccccc1/C=N/NC(=O)CC(=O)NC1CCCCC1` as the compound, how does the Potency read?
Answer: inconclusive: 20.6 µM [rising, partial curve]

Question: With `Cc1ccc2c(c1)c1c(c(=O)n(-c3ccccc3)c(=O)n1Cc1ccccc1C)n2C` as the compound, how does the Potency read?
Answer: inactive

Question: With `O=C(Nc1cccc(S(=O)(=O)C(F)F)c1)c1ccc(Cl)c(S(=O)(=O)N2CCOCC2)c1` as the compound, how does the Potency read?
Answer: inconclusive: 29.1 µM [cytotoxic, single point]

Question: For `C=C(C)CNC(=S)N/N=C/c1ccc(N2CCOCC2)cc1`, which Potency is on record?
Answer: inactive

Question: With `CS(=O)(=O)c1ccc(Cl)c(C(=O)O)c1` as the compound, how does the Potency read?
Answer: inactive

Question: For `COc1ccc(C=CC(=O)c2ccc(OC)c(OC)c2O)cc1OC`, which Potency is on record?
Answer: inconclusive: 18.4 µM [cytotoxic, single point]

Question: Which activity change, negative = cytotoxicity does the source give for `Nn1c(SCC(=O)Nc2cccc(S(N)(=O)=O)c2)nnc1C1CC1` here?
Answer: inconclusive: 39.2%

Question: For `Cc1ccc(-n2ncc3c(SCc4cccnc4)ncnc32)c(C)c1`, which Potency is on record?
Answer: active: 5.8 µM

Question: Which Potency does the source give for `COc1ccccc1CNC(=O)c1cc(C(C)C)nc2ccccc12` here?
Answer: inconclusive: 9.2 µM [cytotoxic, partial curve]

Question: With `CC1=NN(c2ccccc2)C(=O)C1N=Nc1ccc(S(N)(=O)=O)cc1` (stereo not given) as the compound, how does the Potency read?
Answer: inactive

Question: Which Potency does the source give for `CSc1ccc(/C=C(\C(=O)O)c2ccc(S(=O)(=O)N3CCCC3)s2)cc1` here?
Answer: inconclusive: 29.1 µM [rising, single point]

Question: With `Cc1cc(NC(=O)c2cc(-c3ccccc3Cl)nc3ccccc23)no1` as the compound, how does the Potency read?
Answer: inconclusive: 2.31 µM [cytotoxic, full curve]

Question: With `O=C(CCc1ccc(S(=O)(=O)NC2CCCCC2)cc1)NCc1cccnc1` as the compound, how does the Potency read?
Answer: inactive

Question: Which Potency does the source give for `CCOC(=O)c1[nH]c(C)c(C(=O)N2CCN(c3cccc(Cl)c3)CC2)c1C` here?
Answer: active: 13 µM

Question: For `CC(C)Cn1c(N)c(C(=O)COC(=O)c2cccc(Cl)c2)c(=O)n(C)c1=O`, which Potency is on record?
Answer: inconclusive: 23.1 µM [cytotoxic, single point]
